In paper PMC4911932:
No constants are given. Whether binding was seen depends on the method and setting. Binding seen in cells or lysates may run through a third protein. A result given as binding can be weak or reduced; the word gives no strength. For some of these results: Where a sequence is shown, tags or fusion partners need not be part of it.

The chains behind the UniProt entries cited, without tags or fusion partners. Where a name states a change or a piece, a line headed by the entry shows the natural chain unless it says otherwise.
UniProt P35187: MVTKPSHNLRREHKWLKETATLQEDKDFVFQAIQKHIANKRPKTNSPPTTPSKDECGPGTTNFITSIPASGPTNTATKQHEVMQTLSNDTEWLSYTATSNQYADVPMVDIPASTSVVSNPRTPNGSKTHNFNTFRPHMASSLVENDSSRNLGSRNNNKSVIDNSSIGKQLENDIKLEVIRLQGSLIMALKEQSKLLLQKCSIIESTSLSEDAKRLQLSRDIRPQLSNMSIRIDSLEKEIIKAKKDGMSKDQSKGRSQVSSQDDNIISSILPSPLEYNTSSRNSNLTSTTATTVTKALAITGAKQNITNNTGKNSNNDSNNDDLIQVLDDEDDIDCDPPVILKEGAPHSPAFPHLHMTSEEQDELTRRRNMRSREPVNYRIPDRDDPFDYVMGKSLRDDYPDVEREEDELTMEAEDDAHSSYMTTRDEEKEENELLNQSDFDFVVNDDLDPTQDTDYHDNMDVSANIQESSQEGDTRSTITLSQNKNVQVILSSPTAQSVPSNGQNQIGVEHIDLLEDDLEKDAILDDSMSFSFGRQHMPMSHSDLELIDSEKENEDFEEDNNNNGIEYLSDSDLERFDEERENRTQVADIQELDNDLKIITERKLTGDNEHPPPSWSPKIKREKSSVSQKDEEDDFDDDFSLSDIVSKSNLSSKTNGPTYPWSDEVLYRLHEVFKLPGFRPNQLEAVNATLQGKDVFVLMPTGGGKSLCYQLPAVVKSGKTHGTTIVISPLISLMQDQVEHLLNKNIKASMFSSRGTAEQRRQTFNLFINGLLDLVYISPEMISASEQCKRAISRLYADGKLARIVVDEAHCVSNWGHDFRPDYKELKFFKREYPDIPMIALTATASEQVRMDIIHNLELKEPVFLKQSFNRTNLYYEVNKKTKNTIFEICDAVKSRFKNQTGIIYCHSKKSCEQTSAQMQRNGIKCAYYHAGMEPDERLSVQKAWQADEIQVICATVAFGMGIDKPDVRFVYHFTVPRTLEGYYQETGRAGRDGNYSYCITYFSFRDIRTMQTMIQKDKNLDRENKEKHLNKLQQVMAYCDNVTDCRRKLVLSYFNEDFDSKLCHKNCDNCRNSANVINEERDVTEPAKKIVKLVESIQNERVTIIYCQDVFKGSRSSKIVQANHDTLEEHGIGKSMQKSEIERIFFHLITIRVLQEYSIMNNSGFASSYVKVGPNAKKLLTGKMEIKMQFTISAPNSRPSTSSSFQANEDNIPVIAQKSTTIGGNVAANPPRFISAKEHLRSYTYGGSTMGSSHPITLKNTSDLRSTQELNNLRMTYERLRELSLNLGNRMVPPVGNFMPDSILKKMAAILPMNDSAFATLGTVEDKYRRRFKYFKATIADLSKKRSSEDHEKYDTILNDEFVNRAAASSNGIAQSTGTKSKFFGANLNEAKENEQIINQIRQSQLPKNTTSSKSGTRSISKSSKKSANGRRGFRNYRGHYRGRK
UniProt P22336: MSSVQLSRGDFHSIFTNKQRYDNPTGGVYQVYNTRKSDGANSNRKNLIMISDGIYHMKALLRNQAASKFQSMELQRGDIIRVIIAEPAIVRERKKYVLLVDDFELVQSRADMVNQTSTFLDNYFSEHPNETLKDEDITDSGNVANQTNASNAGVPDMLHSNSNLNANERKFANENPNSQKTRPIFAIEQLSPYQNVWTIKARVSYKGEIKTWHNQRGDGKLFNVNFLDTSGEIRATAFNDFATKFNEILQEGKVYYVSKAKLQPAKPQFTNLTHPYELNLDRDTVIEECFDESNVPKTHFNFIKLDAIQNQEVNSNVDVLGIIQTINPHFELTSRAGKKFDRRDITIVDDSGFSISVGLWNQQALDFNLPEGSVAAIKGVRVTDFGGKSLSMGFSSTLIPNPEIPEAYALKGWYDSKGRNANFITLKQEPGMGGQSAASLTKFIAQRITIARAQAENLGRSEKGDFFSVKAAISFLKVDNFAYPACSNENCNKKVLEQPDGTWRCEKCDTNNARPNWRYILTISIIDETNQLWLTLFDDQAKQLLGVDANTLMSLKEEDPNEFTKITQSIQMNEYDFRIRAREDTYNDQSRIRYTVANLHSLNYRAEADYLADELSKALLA

Assays:
[1] = molecular target: sgs1-SIM1-2Δ (Sgs1-3HA) (yeast (S. cerevisiae)) (UniProt P35187); assay: co-IP; Sgs1-3HA precipitated from extracts of cells treated with 0.033% MMS for 2 h; Rpa1 found by Western blot
[2] = molecular target: T1, Top3-9myc (yeast (S. cerevisiae)) (UniProt P13099); assay: co-IP; myc-tagged bait precipitated with anti-Myc 9E10 on protein G Dynabeads, 2 h at 4°C, from yeast extracts in 50 mM HEPES, 150 mM KCl, 1.5 mM MgCl2, 0.5 mM DTT, 0.5% Triton X-100, pH 7.5; HA-tagged prey found by Western blot; cells treated with 0.033% MMS for 2 h; extracts also treated with DNase I (Fig. 3B); STR pairs also tested in mms21ΔC cells (Fig. 3G,H)
T1 sequence: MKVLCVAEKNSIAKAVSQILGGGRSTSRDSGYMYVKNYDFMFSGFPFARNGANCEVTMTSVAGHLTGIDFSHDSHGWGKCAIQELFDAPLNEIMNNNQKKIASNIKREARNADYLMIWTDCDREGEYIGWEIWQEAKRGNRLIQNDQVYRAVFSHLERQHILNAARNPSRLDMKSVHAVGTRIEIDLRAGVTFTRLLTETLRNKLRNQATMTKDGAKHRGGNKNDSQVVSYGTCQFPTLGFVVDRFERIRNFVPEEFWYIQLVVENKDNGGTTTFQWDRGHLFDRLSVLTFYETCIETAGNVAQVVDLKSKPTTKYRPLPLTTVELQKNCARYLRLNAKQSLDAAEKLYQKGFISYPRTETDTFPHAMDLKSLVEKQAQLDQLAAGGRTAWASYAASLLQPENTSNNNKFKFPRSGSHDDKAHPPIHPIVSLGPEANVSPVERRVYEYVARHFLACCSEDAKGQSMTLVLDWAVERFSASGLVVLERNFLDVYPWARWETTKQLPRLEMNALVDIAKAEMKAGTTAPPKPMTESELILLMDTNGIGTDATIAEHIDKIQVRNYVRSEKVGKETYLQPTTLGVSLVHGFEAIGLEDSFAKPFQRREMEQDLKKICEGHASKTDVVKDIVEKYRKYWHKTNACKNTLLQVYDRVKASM

[3] = molecular target: T2, Smc5-9myc (yeast (S. cerevisiae)) (UniProt Q08204); assay: as above
T2 sequence (chain, part of the protein carries SUMO (Smt3) in MMS-treated cells; sites not given): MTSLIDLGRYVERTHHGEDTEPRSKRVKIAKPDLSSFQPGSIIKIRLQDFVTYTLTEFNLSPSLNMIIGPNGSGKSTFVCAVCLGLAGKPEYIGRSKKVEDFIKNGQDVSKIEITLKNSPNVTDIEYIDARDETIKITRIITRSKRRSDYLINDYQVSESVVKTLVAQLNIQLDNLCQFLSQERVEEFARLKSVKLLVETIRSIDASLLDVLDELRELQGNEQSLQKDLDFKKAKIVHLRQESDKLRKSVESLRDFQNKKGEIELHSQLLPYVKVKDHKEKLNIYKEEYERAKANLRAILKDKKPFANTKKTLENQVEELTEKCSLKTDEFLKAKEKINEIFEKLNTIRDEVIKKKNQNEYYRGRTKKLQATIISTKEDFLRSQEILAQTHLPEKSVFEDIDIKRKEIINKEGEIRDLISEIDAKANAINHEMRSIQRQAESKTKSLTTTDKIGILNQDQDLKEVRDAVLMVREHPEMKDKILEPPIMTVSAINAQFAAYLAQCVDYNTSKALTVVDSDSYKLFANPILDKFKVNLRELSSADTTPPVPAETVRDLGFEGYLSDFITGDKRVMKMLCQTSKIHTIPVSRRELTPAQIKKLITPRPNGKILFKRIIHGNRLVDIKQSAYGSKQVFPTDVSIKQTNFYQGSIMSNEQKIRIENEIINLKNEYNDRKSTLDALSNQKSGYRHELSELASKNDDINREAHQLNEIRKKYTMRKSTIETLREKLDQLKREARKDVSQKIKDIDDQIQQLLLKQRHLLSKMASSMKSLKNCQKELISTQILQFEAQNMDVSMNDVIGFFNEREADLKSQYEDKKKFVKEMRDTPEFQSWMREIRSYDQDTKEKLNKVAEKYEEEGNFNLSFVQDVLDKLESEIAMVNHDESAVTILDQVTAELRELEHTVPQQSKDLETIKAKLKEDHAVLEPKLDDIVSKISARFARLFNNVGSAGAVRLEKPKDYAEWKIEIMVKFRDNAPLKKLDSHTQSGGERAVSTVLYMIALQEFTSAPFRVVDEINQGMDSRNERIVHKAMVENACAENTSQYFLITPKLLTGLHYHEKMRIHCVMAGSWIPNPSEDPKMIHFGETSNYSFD

Rpa1 (from UniProt P22336 1-621)
binding [1]: binds

sgs1-SIM1-2Δ (Sgs1-3HA) (from UniProt P35187)
binding [2]: binds | binding [3]: no binding

sgs1-SIM1Δ (Sgs1-3HA) (from UniProt P35187)
binding [3]: binds
